Assay results as given in PubChem BioAssay AID1671190 (National Center for Advancing Translational Sciences (NCATS), 2021).
Out of some 580,000 compounds screened, about 6,100 (1.1%) were called active. Inconclusive means that the source gave no clear call. Such entries were picked first, then a sample of the others. Calls follow the shape of the dose curve; as a rule, active = well fitted inhibition curve with a large enough effect; inconclusive = small, poorly fitted or top-dose-only effect, or another doubt; inactive = no such curve, though single readings can be large or run the other way. Potencies beside an inconclusive call are fits to weak or partial responses and may not hold up.

By UniProt entry, the sequences of proteins in these tests, tags left out.
UniProt P18054, whole entry, looked up: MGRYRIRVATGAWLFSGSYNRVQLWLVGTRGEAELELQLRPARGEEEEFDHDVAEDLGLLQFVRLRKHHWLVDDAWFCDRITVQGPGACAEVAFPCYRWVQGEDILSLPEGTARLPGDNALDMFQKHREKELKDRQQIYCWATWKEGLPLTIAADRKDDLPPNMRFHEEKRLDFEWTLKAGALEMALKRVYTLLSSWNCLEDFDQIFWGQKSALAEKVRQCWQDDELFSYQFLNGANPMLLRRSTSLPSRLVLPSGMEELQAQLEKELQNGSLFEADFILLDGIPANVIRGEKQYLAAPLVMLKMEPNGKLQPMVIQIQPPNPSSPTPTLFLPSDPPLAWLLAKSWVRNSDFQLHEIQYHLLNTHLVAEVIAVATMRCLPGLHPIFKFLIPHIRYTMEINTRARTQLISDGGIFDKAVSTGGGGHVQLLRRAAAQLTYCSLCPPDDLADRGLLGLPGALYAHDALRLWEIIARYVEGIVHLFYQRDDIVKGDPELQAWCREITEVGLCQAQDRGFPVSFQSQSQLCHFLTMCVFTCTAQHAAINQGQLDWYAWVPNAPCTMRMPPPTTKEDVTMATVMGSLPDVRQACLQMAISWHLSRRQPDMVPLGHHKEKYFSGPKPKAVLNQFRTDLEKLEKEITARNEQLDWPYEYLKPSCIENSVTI

target: Polyunsaturated fatty acid lipoxygenase ALOX12 (Homo sapiens) (UniProt P18054); assay: Primary qHTS assay for inhibitors of human arachidonate 12S-lipoxygenase (ALOX12): Round 2; conditions: purified 12hLO, xylenol orange hydroperoxide absorbance; activity change, negative = inhibition: at 108 µM (top of the series) unless noted
Procedure, shortened: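 Purified human 12hLO (150 nM final) in 25 mM Hepes, 0.01% Triton X-100, pH 7.0 was preincubated 15 min at room temperature with compound. Then 40 uM arachidonic acid was added, 30 min. Hydroperoxide was read by Fe-XO absorbance ratio 573/405 nm.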
% is scaled to controls: 0 for no effect and ±100 for the full control effect; potency is read from the fitted curve at half-maximal effect.

SMILES	activity change, negative = inhibition	Potency
COc1ccc(-n2ccnc2CN(C)Cc2cc(C(C)C)on2)cc1	inactive: 0.714%	
Cc1ccc(NC(=O)N2CCN(c3cccc(Cl)c3)CC2)cc1C		inconclusive: 35.5 µM [inhibitor, single point]
O=C(OCC(=O)N1CCC(c2ccccc2)=N1)c1cc2c(s1)CCC2		inconclusive: 79.4 µM [inhibitor, partial curve, poor fit]
Fc1cccc(NC(=S)NC2CC2)c1	inactive: -14.7%	
O=C(c1cc([N+](=O)[O-])ccc1N1CCCC1)N1CCCC1		inconclusive: 100 µM [inhibitor, partial curve, poor fit]
CCc1cccc(CC)c1NC(=O)C(Sc1ccccc1)c1ccccc1 (stereo not given)		inconclusive: 39.8 µM [inhibitor, partial curve, poor fit]
O=C(Nc1cccc(F)c1)N1CC=C(c2ccc(Cl)cc2)CC1		inconclusive: 14.1 µM [inhibitor, partial curve, poor fit]
Cc1c(C(=O)NCc2cccs2)oc2ccccc12	inactive: 20.5%	
O=C(COC(=O)/C=C/c1ccccc1)NC1CCCC1		inconclusive: 0.355 µM [inhibitor, full curve, poor fit]
Cc1cc(/C=C2\C(=N)N3N=C(c4ccco4)SC3=NC2=O)c(C)n1Cc1ccccc1	inactive: 346%	
CCOC(=O)CNC(=O)N(C)[C@H]1C[C@H]2c3[nH]c4c(-c5ccc6c(c5)OCO6)cccc4c3CCN2C(=O)[C@H]1[C@H](C)O		inconclusive: 79.4 µM [inhibitor, partial curve, poor fit]
Cc1cccc(CNCc2cccs2)c1		inconclusive: 35.5 µM [inhibitor, single point]
CCN(CC)C(=O)Cn1c(=O)c2ccccc2n2c(=S)sc(-c3cccc(C)c3)c12		inconclusive: 126 µM [inhibitor, partial curve, poor fit]
Fc1c(F)c(F)c(N=Cc2ccsc2)c(F)c1F	inactive: 1.79%	
Cc1cc(CN(C)C2CCc3ccccc32)no1 (stereo not given)	inactive: 56.6% [at 176 µM]	
COc1cc(CCc2ccccc2)c(C(=O)O)c(O)c1C/C=C(/C)CCC=C(C)C		inconclusive: 31.6 µM [inhibitor, full curve, poor fit]
CC(=O)Nc1ccc2nc(SCC(=O)O)sc2c1	inactive: 150%	
Cc1nc2c(c3c1[nH]c1ccccc13)C(O)CC(C)(C)C2 (stereo not given)		inconclusive: 0.0794 µM [inhibitor, full curve, poor fit]
CCN(CC)Cc1cc(C(C)=O)ccc1OCC(C)C		inconclusive: 126 µM [inhibitor, single point]
O=C(NCc1cccnc1)c1ccc(COc2cccc3ccccc23)o1		inconclusive: 39.8 µM [inhibitor, single point]

Some of these compounds in order of heavy-atom count, low to high.
SMILES	activity change, negative = inhibition	Potency
Fc1c(F)c(F)c(N=Cc2ccsc2)c(F)c1F	inactive: 1.79%	
O=C(c1cc([N+](=O)[O-])ccc1N1CCCC1)N1CCCC1		inconclusive: 100 µM [inhibitor, partial curve, poor fit]
Cc1ccc(NC(=O)N2CCN(c3cccc(Cl)c3)CC2)cc1C		inconclusive: 35.5 µM [inhibitor, single point]
